Values from PubChem BioAssay AID504804 (Drosophila RNAi Screening Center, 2011).
The deposit covers about 19,000 reagents; shown is an unselected part of those that have a named target and a result. Of all reagents, 47 (0.25%) got an active call. 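Signals are raw, not normalised; exact z-scores behind calls not deposited; actives needed confirmation, so some wells reaching 2 SD are inactive.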

Screen: 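Knock-downs shielding fly cells from apoptosis caused by DNA damage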 (primary screen)
System: Drosophila Kc cells
Knock-down reagent: long dsRNA against Drosophila genes, 0.5 µg dsRNA per well
Duration: 96 h (48 h knock-down, then 48 h drug)
Challenge: doxorubicin 5 µg/ml for 48 h, added 48 h after dsRNA
Measurement: 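Luminescent ATP counts per replicate, not normalised, reflecting viable cells after 48 h dsRNA knock-down followed by 48 h of 5 µg/ml doxorubicin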
Scale: raw ATP luminescence: higher = more viable cells, protection from doxorubicin
Active means: 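Active when both duplicate wells lie at least 2 SD above the plate mean and protection is confirmed by rescreening and independent dsRNAs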

The opening 10 entries, ahead of the listing:
| gene | amplicon | raw ATP luminescence, replicate 1 | raw ATP luminescence, replicate 2 | Call |
| --- | --- | --- | --- | --- |
| CG14840 | DRSC14964 | 83940 | 70070 | inactive |
| Jabba | DRSC06521 | 72037 | 60047 | inactive |
| ltl | DRSC10206 | 86103 | 81497 | inactive |
| ltl | DRSC10870 | 91753 | 91163 | inactive |
| lama | DRSC11361 | 29740 | 33567 | inactive |
| Est-Q | DRSC11835 | 21443 | 21927 | inactive |
| TfIIA-S | DRSC16883 | 79030 | 58480 | inactive |
| Rubicon | DRSC17889 | 53450 | 53970 | inactive |
| Usp14 | DRSC02853 | 75170 | 63477 | inactive |
| Mur2B | DRSC18545 | 59830 | 49910 | inactive |

The listing, repeating the preview:
| gene | amplicon | raw ATP luminescence, replicate 1 | raw ATP luminescence, replicate 2 | Call |
| --- | --- | --- | --- | --- |
| CG14840 | DRSC14964 | 83940 | 70070 | inactive |
| Jabba | DRSC06521 | 72037 | 60047 | inactive |
| ltl | DRSC10206 | 86103 | 81497 | inactive |
| ltl | DRSC10870 | 91753 | 91163 | inactive |
| lama | DRSC11361 | 29740 | 33567 | inactive |
| Est-Q | DRSC11835 | 21443 | 21927 | inactive |
| TfIIA-S | DRSC16883 | 79030 | 58480 | inactive |
| Rubicon | DRSC17889 | 53450 | 53970 | inactive |
| Usp14 | DRSC02853 | 75170 | 63477 | inactive |
| Mur2B | DRSC18545 | 59830 | 49910 | inactive |
| Mur2B | DRSC18546 | 55070 | 54480 | inactive |
| CG34169 | DRSC01579 | 3.15e5 | 2.71e5 | inactive |
| krz | DRSC16979 | 50960 | 56040 | inactive |
| subdued | DRSC15137 | 49500 | 37333 | inactive |
| PyK | DRSC16806 | 67910 | 42130 | inactive |
| mtg | DRSC16256 | 50220 | 59213 | inactive |
| MFS16 | DRSC04051 | 55590 | 52727 | inactive |
| Spt | DRSC07123 | 37620 | 1.31e5 | inactive |
| CG31125 | DRSC13684 | 2.15e5 | 2.33e5 | inactive |
| CR33317 | DRSC02653 | 49817 | 44713 | inactive |
| mamo | DRSC19370 | 2.46e5 | 2.21e5 | inactive |
| CG13471 | DRSC10015 | 62370 | 50173 | inactive |
| Vps25 | DRSC06486 | 47640 | 93787 | inactive |
| SMC5 | DRSC11849 | 21800 | 26657 | inactive |
| Dfd | DRSC12593 | 77493 | 61780 | inactive |
| CG9806 | DRSC18444 | 3.49e5 | 3.46e5 | inactive |
| CG43163 | DRSC10745 | 81177 | 1.03e5 | inactive |
| CG43163 | DRSC10748 | 90457 | 93143 | inactive |
| CG5098 | DRSC06915 | 60150 | 51813 | inactive |
| CG6900 (retired record) | DRSC20018 | 3.51e5 | 3.10e5 | inactive |
| jb | DRSC20531 | 3.67e5 | 3.45e5 | inactive |
| Agpat4 | DRSC10446 | 36257 | 28870 | inactive |
| CG11019 (retired record) | DRSC02117 | 46453 | 55320 | inactive |
| CG13840 | DRSC14690 | 31970 | 31110 | inactive |
| AdamTS-A | DRSC14992 | 43623 | 23750 | inactive |
| AdamTS-A | DRSC15966 | 84490 | 67660 | inactive |
| CG12516 | DRSC14524 | 78560 | 47730 | inactive |
| CG15784 | DRSC18090 | 34310 | 38060 | inactive |
| Phae2 | DRSC02555 | 72803 | 76623 | inactive |
| Cdc6 | DRSC10563 | 35460 | 43097 | inactive |
| CG8519 | DRSC10985 | 67810 | 61120 | inactive |
| CG3081 | DRSC18571 | 44020 | 40270 | inactive |
| mRpS29 | DRSC04398 | 66177 | 66743 | inactive |
| E(spl)m8-HLH | DRSC16654 | 53600 | 51330 | inactive |
| CG14073 | DRSC10078 | 51057 | 35140 | inactive |
| Ugt37A2 | DRSC15861 | 52153 | 55220 | inactive |
| Rpn1 | DRSC11274 | 18150 | 15823 | inactive |
| CROT | DRSC14519 | 37460 | 44700 | inactive |
| eIF3j | DRSC06107 | 85803 | 80743 | inactive |
| Nup358 | DRSC14410 | 58767 | 98097 | inactive |
| B-H2 | DRSC19335 | 47360 | 39760 | inactive |
| spir | DRSC03619 | 49937 | 62020 | inactive |
| CG32243 | DRSC08105 | 88720 | 95320 | inactive |
| Spn85F | DRSC14545 | 1.79e5 | 1.72e5 | inactive |
| CG4972 | DRSC02798 | 44130 | 63553 | inactive |
| heix | DRSC03542 | 1.06e5 | 54883 | inactive |
| CG10171 | DRSC09711 | 34040 | 42667 | inactive |
| Ciao1 | DRSC06170 | 60310 | 70167 | inactive |
| olf413 | DRSC11543 | 57253 | 59117 | inactive |
| olf413 | DRSC11679 | 63673 | 62847 | inactive |
| olf413 | DRSC11721 | 76543 | 62743 | inactive |
| olf413 | DRSC11833 | 72063 | 69877 | inactive |
| EbpII | DRSC04637 | 81173 | 68407 | inactive |
| CG12426 | DRSC14516 | 60980 | 48790 | inactive |
| chinmo | DRSC00292 | 81677 | 62023 | inactive |
| CG17472 | DRSC02622 | 48107 | 54720 | inactive |
| Muc18B | DRSC20064 | 3.67e5 | 3.40e5 | inactive |
| p23 | DRSC15158 | 54210 | 21543 | inactive |
| Gpdh3 | DRSC13561 | 2.33e5 | 2.15e5 | inactive |
| Gpdh3 | DRSC15325 | 66980 | 61510 | inactive |
| Fgop2 | DRSC02016 | 1.04e5 | 66240 | inactive |
| BBS4 | DRSC06352 | 2.63e5 | 2.52e5 | inactive |
| mthl11 | DRSC12779 | 93400 | 70720 | inactive |
| RpL22 | DRSC18707 | 36320 | 53770 | inactive |
| CG18249 | DRSC15318 | 56587 | 21173 | inactive |
| l(1)10Bb | DRSC20346 | 2.42e5 | 2.42e5 | inactive |
| RpL13 | DRSC03416 | 60853 | 73860 | inactive |
| eEF1gamma | DRSC16659 | 24140 | 24800 | inactive |
| CG42565 | DRSC04154 | 59503 | 50833 | inactive |
| CG18823 | DRSC18168 | 51450 | 64460 | inactive |
| Lk | DRSC10022 | 55193 | 46770 | inactive |
| Osi20 | DRSC12568 | 66823 | 48670 | inactive |
| CG11030 | DRSC02120 | 31773 | 34553 | inactive |
| Pde1c | DRSC02421 | 42510 | 62793 | inactive |
| Pde1c | DRSC02422 | 40117 | 51273 | inactive |
| Pde1c | DRSC02423 | 29227 | 54003 | inactive |
| Pde1c | DRSC02424 | 32047 | 49303 | inactive |
| Pde1c | DRSC02425 | 35243 | 78840 | inactive |
| Pde1c | DRSC02426 | 36977 | 74113 | inactive |
| CG12511 | DRSC02171 | 31853 | 25783 | inactive |
| Fsn | DRSC06875 | 67570 | 55890 | inactive |
| CG14324 | DRSC14803 | 65690 | 57280 | inactive |
| snky | DRSC09838 | 73057 | 80893 | inactive |
| CG3483 | DRSC04371 | 75353 | 48510 | inactive |
| blw | DRSC04675 | 54707 | 41087 | inactive |
| Dtd | DRSC15362 | 56183 | 48347 | inactive |
| barr | DRSC03488 | 46710 | 37113 | inactive |
| CG7080 | DRSC16193 | 46637 | 33100 | inactive |
| rt | DRSC11391 | 77687 | 56920 | inactive |
| MED17 | DRSC16889 | 38783 | 34953 | inactive |
| ova | DRSC02879 | 70850 | 61517 | inactive |
| LManVI | DRSC03224 | 44867 | 70700 | inactive |
| PolrMT | DRSC00660 | 1.12e5 | 62210 | inactive |
| Syn | DRSC16876 | 54960 | 43587 | inactive |
| CG14722 | DRSC14944 | 66223 | 30777 | inactive |
| CG13842 | DRSC14692 | 64610 | 73070 | inactive |
| CG12531 | DRSC19466 | 2.66e5 | 2.57e5 | inactive |
